The supplement of paper PMC3334620
Whole data set: some 33,000 sequences, median “E-score (-0.5 to 0.5)” near -8e-05, cut for the highest 2% near 0.23. This is one part of the list.

Molecular target: T1, Nrg2 (UniProt P38082)
T1 sequence: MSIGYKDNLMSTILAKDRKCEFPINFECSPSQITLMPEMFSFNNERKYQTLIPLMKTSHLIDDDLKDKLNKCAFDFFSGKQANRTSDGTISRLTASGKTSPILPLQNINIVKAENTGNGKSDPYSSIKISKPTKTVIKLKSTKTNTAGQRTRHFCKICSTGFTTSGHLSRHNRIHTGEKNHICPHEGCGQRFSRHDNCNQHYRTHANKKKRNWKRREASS
Test: PBM E-score (8-mer binding enrichment) (E-score (-0.5 to 0.5)); higher = stronger / more preferred TF binding
Details: protein concentration: 100 nM; construct: GST-full length
Experimental: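 Universal 'all 10-mer' protein binding microarrays (Agilent AMADID 015681) probed with GST-tagged S. cerevisiae TFs (full-length or DBD) made by in vitro transcription/translation (PURExpress), about 100-200 nM. Bound TF was detected with fluorescent anti-GST. Each ungapped 8-mer (which stands for itself and its reverse complement) is scored by the PBM enrichment score (E-score), a modified Wilcoxon-Mann-Whitney statistic from -0.5 to +0.5, computed with the Universal PBM Analysis Suite. Scale: above 0.35 generally sequence-specific binding.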

Point of comparison: ACTGTGCG, “PBM E-score” value 0.0695. Against it:
- CAACTCTC — lower, 0.0117
- CCAATCCC — higher, 0.112
- ACTATCTC — lower, 0.0488
- CGTATGTC — lower, -0.0721
- AAGTTAAC — higher, 0.106
- ATCGTTAA — higher, 0.188
- CTATTTTA — higher, 0.121
- GTAATGTA — lower, -0.19
- CCTGGTAC — higher, 0.143
- AGTGGTCC — lower, -0.0166
- CCAACAAG — lower, 0.0665
- CGTTACAG — lower, 0.0283
- AGGGTTCA — higher, 0.281
- GTTACACA — lower, -0.0481
- ATCATGTC — lower, 0.0168
- ATAATAGG — higher, 0.203
- ACTGTACT — higher, 0.0706
- CAGAGGGG — lower, -0.314
- CTCTATTA — lower, -0.105
- AAGGCTAG — lower, -0.0047
- ACCCTGTA — higher, 0.347
- CGTTGGCC — lower, -0.254
- TCGGGGAA — lower, 0.0293
- CCCACGAC — lower, -0.126
- CCAACTCC — higher, 0.224
- AATTGAGC — lower, -0.0424
- CGGGTTAG — lower, -0.218
- AAGGTCAG — lower, -0.0844
- AGTCCGCG — lower, -0.0189
- CGAGGGAA — lower, 0.0651
- CTATTGGC — lower, -0.222
- GGGAACAA — lower, 0.0199
- GAGTGAGC — lower, -0.043
- ACATCTTA — higher, 0.117
- AATTTCAC — lower, 0.0325
- ACTCGTCT — higher, 0.147
- GCGGAGCA — lower, -0.189
- AAGCACTC — lower, -0.111
- CGCATAGC — lower, -0.043
- ACACTGTC — lower, -0.0654
- ACGAAGAT — lower, 0.0578
- ACGCGAGT — lower, -0.0098
- AGGTCTAG — lower, -0.162
- AGATATAG — lower, 0.00406
- CATAGCAG — lower, -0.256
- GGTCGACA — lower, -0.00124
- ACGAGCTC — lower, 0.0413
- GATACCAC — higher, 0.104
- TGTCTGAA — lower, 0.0253
- GGGATACC — lower, -0.051
- ATAGTGTA — higher, 0.0816
- CACAAGAA — higher, 0.245
- AAGCTTCT — lower, -0.0885
- AGTTTTCA — lower, -0.054
- AGGATGGG — lower, -0.104
- AAGCAAAC — lower, 0.0587
- CGTTGGAA — lower, -0.165
- AGTAACCG — lower, 0.0546
- CCTCCCCA — higher, 0.0795
- AACATTGC — lower, -0.0856
- CGTAGGGA — lower, -0.032
- AACTCAGC — higher, 0.129
- CAATGAAA — higher, 0.112
- ACCATTCC — lower, 0.00799
- ACGGACAG — lower, -0.0106
- CTTTGTAA — lower, -0.0719
- AAAGAACG — lower, 0.0453
- GAGCCGGA — lower, -0.0577
- AGCAAGGG — higher, 0.261
- AACGTACC — lower, -0.205
- CGCACATC — lower, 0.0591
- CTCTCGTC — lower, -0.147
- AAGGAACA — lower, 0.0535
- ATATCGTG — higher, 0.0993
- AATGGCCG — lower, -0.134
- GAAGTGCC — lower, -0.207
- GGGATTAC — lower, -0.0748
- ATTCGGCC — lower, 0.0563
- GTCATCCA — higher, 0.0788
- TATGCATA — lower, 0.00029
- CATTTAGA — lower, -0.076
- ACTTTCCA — higher, 0.0756
- TGGTTAAA — lower, -0.0231
- CTCAGAGA — lower, -0.0684
- GTGAATAA — higher, 0.167
- AGACACAA — lower, 0.0209
- CGTAAAAA — lower, -0.0837
- AGGACCCT — higher, 0.369
- ATGCTTTG — lower, -0.0734
- ATAATTAT — higher, 0.228
- ATAAATGC — higher, 0.166
- CTTGTGCC — lower, -0.222
- ACCTTTCT — lower, 0.026
- CCTCTACC — lower, -0.00218
- ACAGAGGG — lower, -0.139
- CCCCAGGC — lower, -0.284
- ATCAACCG — lower, 0.0105
- ATTGTATC — lower, 0.03
- CTCACGGA — lower, -0.101
- ACACTGCC — higher, 0.145
- ATTGGGAC — lower, -0.0162
- GGGCCGGA — lower, -0.138
- GGTGCAAA — lower, -0.142
- ACCAGACG — lower, -0.0721
- ATACCAGA — higher, 0.226
- GTTAAAGA — lower, -0.00414
- AATCAGGC — lower, -0.0687
- CAGTAGCA — lower, -0.0511
- GATTGAGC — lower, -0.0352
- ACCCTCCT — lower, -0.14
- ATGGCGAG — lower, 0.0321
- CAGCCGTA — lower, -0.11
- ACGTACGA — lower, -0.199
- AGTATGGA — higher, 0.0835
- CACGATGA — lower, 0.0225
- AGCCCGTG — lower, -0.112
- ACGTGTCC — lower, -0.31
- TGCGGGAA — higher, 0.125
- AGTTATCC — higher, 0.118
- CTAGCTGA — lower, -0.0111
- AAGAGAAA — lower, 0.0319
- AGTAAGAA — higher, 0.109
- GAAATTGA — lower, -0.0291
- GCTCAACC — lower, -0.128
- CACCCCCA — lower, -0.313
- CGAAAGGA — higher, 0.112
- AAAGCACG — lower, -0.0854
- GCATTCTA — lower, 0.0303
- AAAGCGAG — higher, 0.187
- AAGACCTG — lower, -0.198
- GCGTGGGA — lower, -0.129
- CCAAACAC — higher, 0.118
- AATACCAG — higher, 0.206
- AACCGCTG — lower, -0.121
- GAAGCTAC — lower, 0.0431
- AAATACCA — lower, 0.0391
- TGTCCTAA — lower, -0.0512
- AAAGCAAT — higher, 0.184
- AACACAAC — lower, 0.0186
- GGATGGCA — higher, 0.188
- TACGTATA — lower, 0.00553
- AAGGGACA — higher, 0.137
- GGCTTACA — higher, 0.102
- AGAGTATC — higher, 0.0869
- GGGGCGAA — lower, 0.0259
- ACCTCCGA — lower, -0.147
- ATTGTGTG — lower, -0.0481
- ATCTACCC — lower, -0.00404
- CCATTACG — lower, -0.0797
- GCCCTCCA — lower, -0.128
- ACCGGTGA — lower, -0.118
- CACCCCCG — lower, -0.365
- CCCACACG — higher, 0.159
- AGGTTTTG — lower, -0.0406
- ACAACTGA — lower, -0.0194
- ACAACTCT — lower, -0.0855
- AGGTACCA — lower, -0.134
- AGATCAAC — higher, 0.07
- ATGTTGCG — lower, 0.0425
- CATACTAG — higher, 0.248
- ATCTAAGC — lower, -0.155
- CCTGTATC — higher, 0.233
- ATCCAACA — lower, 0.0668
- GCCGAGTA — lower, 0.01
- CCGAAGCG — lower, 0.0231
- AAGGGAAA — lower, 0.0416
- ACGAGGCC — lower, -0.258
- ACTTCCAC — higher, 0.0979
- GCTTTCAC — lower, -0.025
- ATGGTGTG — lower, -0.0259
- AACGGGGG — lower, -0.261
- GCGAATTA — higher, 0.279
- AGAGAGAC — lower, -0.0758
- GACGTGGA — lower, 0.0691
- AAGTAGCC — lower, 0.0239
- AACATTTC — lower, -0.0715
- GAGCTTGC — lower, -0.151
- ACAATTGG — lower, -0.0401
- CCGACTCC — lower, -0.151
- GGTAATCA — lower, 0.0349
- CTTGCGTC — lower, -0.00183
- TAAAAGGA — lower, 0.02
- AGTTTACA — lower, -0.0687
- ATGTGAAT — lower, 0.00585
- AGCTACAG — lower, -0.111
- AAATCCAT — higher, 0.266
- CCAAGCGC — lower, 0.0215
- CCTCCTTC — lower, -0.204
- AAAGAAGC — lower, -0.0222
- ATACGGAT — higher, 0.0807
- ATCCGGCG — lower, -0.0654
- ACAGCGCA — lower, 0.00939
- GGACTGCC — lower, -0.142
- ATTAGCAC — lower, 0.0689
- CCGACCGA — lower, 0.0178
- GAGCCGCA — lower, -0.0775
- CTACCCCC — lower, -0.363
- AGGTACCG — lower, 0.00854
- CGAATTGC — higher, 0.136
- GGACTATA — lower, -0.0144
- GAATCTGC — lower, -0.00561
- TCGCGGAA — lower, -0.0788
- CCACCGGC — lower, -0.168
- CATCGCCG — lower, 0.0333
- ACCCCTTC — lower, 0.0339
- GCGACACC — lower, -0.211
- GATTTTGC — lower, 0.00819
- CGTCTTTA — lower, 0.0637
- CCCTTGCC — lower, 0.00144
- ATTCTTAA — lower, -0.0433
- CCGGGAAC — lower, -0.00517
- CAGCACTC — lower, -0.0539
- ATCGGGTC — lower, 0.0497
- GCGAGAGA — lower, -0.111
- ATGTGGTA — lower, -0.0155
- CGTTAGAG — lower, -0.176
- GAGGACAC — higher, 0.0844
- ACCTCCAC — lower, -0.142
